This passage reports binding signal results from article PMC7819943, “Rice protein-binding microarrays: a tool to detect cis-acting elements near promoter regions in rice”.

The chains behind the UniProt entries cited, without tags or fusion partners.
UniProt Q0JBA9, entry or part of it: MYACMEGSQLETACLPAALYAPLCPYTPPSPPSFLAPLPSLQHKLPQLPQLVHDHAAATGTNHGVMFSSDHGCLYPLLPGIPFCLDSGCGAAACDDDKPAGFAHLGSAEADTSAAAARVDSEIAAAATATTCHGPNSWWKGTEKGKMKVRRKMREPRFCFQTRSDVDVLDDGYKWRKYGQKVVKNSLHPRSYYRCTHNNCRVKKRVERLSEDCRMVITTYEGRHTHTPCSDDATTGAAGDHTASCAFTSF

Some of the results follow.

This assay addresses OsWRKY34 (Oryza sativa, UniProt Q0JBA9 1-250). Nature of the assay: protein-binding microarray (RPBM); PBS, 2% BSA, 51.3 ng/ul salmon testes DNA, 50 uM zinc acetate, 200 nM TF, 25 C, 1 h; high values mean tight binding. The following applies: protein: recombinant; tags: N-terminal polyhistidine and DsRed monomer fusion (pET32a); label: CyDye5-dUTP incorporated in the synthesized complementary strand; 3' TTTTT single-stranded linker to array surface; dsDNA, one strand shown. The essentials:
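In PBS with 2% BSA, salmon testes DNA and 50 µM zinc acetate, 200 nM protein was incubated on a custom Agilent array at 25 °C for 1 h and then washed off. The array had been made double-stranded by primer extension with Cy5-dUTP and blocked with 2% BSA. The proteins were transcription factors fused N-terminally to polyhistidine and DsRed, expressed in E. coli BL21-CodonPlus and purified on Ni–NTA. The binding signal is per-feature fluorescence intensity (arbitrary units) from an Axon 4000B scanner.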
Take “TATCCAATCCATCCGATCCGTCCGTCCACATTCAAATCTCCGGAGTCACCTAGTGCAG”: the binding signal is 10400 fluorescence intensity (a.u.).
For “ACCGGAGAAATCGTCGTCTCTCTCTGTCACCGGGGCCCGCCGGAGTCACCTAGTGCAG” the value was 9360 fluorescence intensity (a.u.); for “CCACTTTTGCAGATTGCAGGGCGCGCAGTACTGCCGACAGCGGAGTCACCTAGTGCAG”, 18900 fluorescence intensity (a.u.); for “TTGACTCCTCGCGCCTCACCTCGCCTCGCCTCCATTACATCGGAGTCACCTAGTGCAG”, 10900 fluorescence intensity (a.u.).
For “CTCCTTGCAAGCATTTCTTGGGTTCTCTTTTCTTTTCTTTCGGAGTCACCTAGTGCAG” the value was 12800 fluorescence intensity (a.u.); for “GCCACCCGCCAGTCGCCGCGCACACGCATCGCCGTTCTTTCGGAGTCACCTAGTGCAG”, 10800 fluorescence intensity (a.u.).
As to “CTCCCATCCGATCACCTCCGTCCCGAACGTTATCTCTAACCGGAGTCACCTAGTGCAG”, the binding signal was 9830 fluorescence intensity (a.u.).
For “CGTCGGTAGGGAGGAGGAGGAGGAGGAGGTGGTGGTGGTGCGGAGTCACCTAGTGCAG” the value was 12000 fluorescence intensity (a.u.); for “TGCATCTTCTCTTCTACCATTCTTGCTTTCTCCTTGTAGTCGGAGTCACCTAGTGCAG”, 14700 fluorescence intensity (a.u.).
As for “TGCTGGGTATTCTTTTTTAGGTGTTGTCAAGTTGTTTTTACGGAGTCACCTAGTGCAG”, the binding signal was 9660 fluorescence intensity (a.u.).
For “TTGTGAGGATTTTTTACTTGTGTTGTGTTGTGTACTTGAACGGAGTCACCTAGTGCAG”, the binding signal was 8760 fluorescence intensity (a.u.).
For “TAGCTCATATTTTGGCCCCTTCATTTCGCTGCCCTGTAAACGGAGTCACCTAGTGCAG”, the binding signal was 9320 fluorescence intensity (a.u.).
For “TCTTGATGGGATTTTTTATACGACTCCTTCTGTATTCTCACGGAGTCACCTAGTGCAG”, the binding signal was 9980 fluorescence intensity (a.u.).
For “GACCGAATGCCCACCCCTATCTACGGGCTTGATAATATCACGGAGTCACCTAGTGCAG” the value was 10600 fluorescence intensity (a.u.).
For “TATATGTAAGCTACTTTTGTCCTATACATAAATTACTTTTCGGAGTCACCTAGTGCAG” the value was 8580 fluorescence intensity (a.u.).
Take “CTTACGATTGAGACATGCCAGCTACTACTCCCAATTCTTGCGGAGTCACCTAGTGCAG”: the binding signal was 8460 fluorescence intensity (a.u.).
Consider “CTGTATCCCCATTCGCTGTCAAAATTCAATTCACTGTCTTCGGAGTCACCTAGTGCAG”, for which the binding signal is 9640 fluorescence intensity (a.u.).
For “GGTATTTTAGTCTTCTGCACATCCATCGGTACGTTCTTTCCGGAGTCACCTAGTGCAG” the value was 15600 fluorescence intensity (a.u.).
Consider “TCATCTCTCGTTCTTACACTATTACATCTTACAAATCAAACGGAGTCACCTAGTGCAG”, for which the binding signal was 9340 fluorescence intensity (a.u.).
For “CATCCTACTCCCTCCGTCCCACAAAACCTGCCGTTTCACCCGGAGTCACCTAGTGCAG” the value was 8520 fluorescence intensity (a.u.); for “CGCACTTACACACACATTCGCTCCGGAGCGCAGTACGTGACGGAGTCACCTAGTGCAG”, 8580 fluorescence intensity (a.u.); for “ACCCTCCTCCCAACCACCCACGCCGTCCGATCCCCATCCGCGGAGTCACCTAGTGCAG”, 8880 fluorescence intensity (a.u.).
With “TACCCCTCATGTTTTTCTTTCTTTATTTTTACAGCGGTTACGGAGTCACCTAGTGCAG”, the binding signal was 8680 fluorescence intensity (a.u.).
For “TAAACACCACCTTTGTCTCTTCTTCTTCTTCCGCCGGCTTCGGAGTCACCTAGTGCAG” the value was 10200 fluorescence intensity (a.u.); for “AGCTGACTTTTGCTTCTTACTCCTACTACTACTACTTGTCCGGAGTCACCTAGTGCAG”, 11000 fluorescence intensity (a.u.); for “ACGAACTCCTCAAATATTGCGAATGCTTGTACTACGACTCCGGAGTCACCTAGTGCAG”, 8190 fluorescence intensity (a.u.).
Turning to “TAATCGCTAATCCTCGCGGTCCATCTGTACTGTACGCTTACGGAGTCACCTAGTGCAG”, the binding signal is 8670 fluorescence intensity (a.u.).
For “TTTTTTTTCTTTTCTTCTGTTCCTGAATACTCTGTAGTTTCGGAGTCACCTAGTGCAG” the value was 8470 fluorescence intensity (a.u.).
For “ATTAACTCCCTCTCCCGCTGCTCCACTCCACTCCCACACCCGGAGTCACCTAGTGCAG” the value was 8110 fluorescence intensity (a.u.); for “GCACATGTTTGACCGTTCGTCTTATTCAAAAATTTTTGTGCGGAGTCACCTAGTGCAG”, 11100 fluorescence intensity (a.u.).
As to “TGATCAGATCCCTCTCTATCTCGTTCCATTTCTATTATCTCGGAGTCACCTAGTGCAG”, the binding signal was 9020 fluorescence intensity (a.u.).
In the case of “CCGTTTTTTAATAGATAACGCTGTTGACTTTTTCTTATATCGGAGTCACCTAGTGCAG”, the binding signal is 11200 fluorescence intensity (a.u.).
For “GCTTGCACCATGCCCGTTGCCTATTTGGCACTCCATGCCCCGGAGTCACCTAGTGCAG” the value was 8240 fluorescence intensity (a.u.).
For “ATACTTCGTTAGGTCCTCTTGGTCAACCCGATATTGACAGCGGAGTCACCTAGTGCAG” the value was 9780 fluorescence intensity (a.u.); for “TATGTTTTTCCTATTCCTCCGTTTTTCCATTCCTATGATTCGGAGTCACCTAGTGCAG”, 9810 fluorescence intensity (a.u.).
With “CTCGCGGGAGGGTGGGGTTGGAAGTTTCCTAGGGGCCCACCGGAGTCACCTAGTGCAG”, the binding signal was 9870 fluorescence intensity (a.u.).
Consider “AAGTGTTTTCGTTTTTTTTTCATTCGCTATTATTTTCTTTCGGAGTCACCTAGTGCAG”, for which the binding signal was 9660 fluorescence intensity (a.u.).
As for “TACACCATTTTCTCTCACTTACATGTAGGCCCTACATATTCGGAGTCACCTAGTGCAG”, the binding signal was 9050 fluorescence intensity (a.u.).
For the sequence “TCGCAGTTTCCTGACGGAATCTGTAATTTGTTTTGTTATTCGGAGTCACCTAGTGCAG”, the binding signal is 8310 fluorescence intensity (a.u.).
On to “GCGCTCCGTGTCCTCCTCGCGTCCTAATCCACACGTGTTCCGGAGTCACCTAGTGCAG”, for which the binding signal was 12100 fluorescence intensity (a.u.).
Consider “GCCCCGACAAAGGCCGACGTCTCCTGCGCGGCCACGTCTCCGGAGTCACCTAGTGCAG”, for which the binding signal is 8020 fluorescence intensity (a.u.).
Regarding “CGTCGCCGCCCACCAAACCCGATCCCACCGCGCCGCGATGCGGAGTCACCTAGTGCAG”, the binding signal was 11100 fluorescence intensity (a.u.).
For “CGACTTCCTTCTGCTCCTCTTTTTTCGTCGTCCTCCTCTCCGGAGTCACCTAGTGCAG”, the binding signal was 8260 fluorescence intensity (a.u.).
For “CAGAGTTTTGTTTATGTTACATGCTTCACCATTCAGAAAGCGGAGTCACCTAGTGCAG” the value was 8470 fluorescence intensity (a.u.); for “ACACGGTCTCTGTCCTACCACAACCTGAACCGTATACTTACGGAGTCACCTAGTGCAG”, 8190 fluorescence intensity (a.u.); for “ACGCCCCATGTAAACATCTTCGATCACGTTATAAATTTTACGGAGTCACCTAGTGCAG”, 8270 fluorescence intensity (a.u.).
Turning to “AACATTTTCCTTCCGCTCTACTCAATCCTATCCATCACATCGGAGTCACCTAGTGCAG”, the binding signal is 9020 fluorescence intensity (a.u.).
“GATTTTGTTCTAGGAACATATATACGTCACTTTGTCATCTCGGAGTCACCTAGTGCAG”: the binding signal is 8180 fluorescence intensity (a.u.).
On to “TTAATTGATGAAGTTGTCTTGTGGGGTAGCAGCACTTTGACGGAGTCACCTAGTGCAG”, for which the binding signal was 8320 fluorescence intensity (a.u.).
For “CTGCCGGAGAGAGAGAGGGAGGGTGAGGGGTCGCGCGCGCCGGAGTCACCTAGTGCAG” the value was 8480 fluorescence intensity (a.u.); for “CTACTGTTTTACTTCTAAATGTTTGCTAAATGCTGCTTTTCGGAGTCACCTAGTGCAG”, 8200 fluorescence intensity (a.u.).
On to “CGATGCGCGACCTCGCCCGCCGCCACGGCCCGCTCATGCTCGGAGTCACCTAGTGCAG”, for which the binding signal was 8410 fluorescence intensity (a.u.).
For “CTCCCTCCATCCCAAAATGTTTGACGCCGTTGACTTTTTACGGAGTCACCTAGTGCAG” the value was 15900 fluorescence intensity (a.u.); for “TCAGCTTTGATACAAATCCGATCTTCTCCTTTTCGTTTTTCGGAGTCACCTAGTGCAG”, 11100 fluorescence intensity (a.u.).
